Experiment [1] addresses endogenous R172H mutp53 (p53R172H/R172H MEFs) (mouse (endogenous in MEFs)) (UniProt P02340). Kind of experiment: co-IP; endogenous FASN and p53 in cell lysates; anti-FASN (sc55580) and anti-p53 (sc126) antibodies, mouse IgG as negative control; Western blot.
Experiment [2] concerns the target endogenous wild-type p53 (p53+/+ MEFs) (mouse (endogenous in MEFs)) (UniProt P02340). The experiment is described as above.

Protein sequences, listed by entry. Tags and fused reporters are not part of them.
UniProt P19096: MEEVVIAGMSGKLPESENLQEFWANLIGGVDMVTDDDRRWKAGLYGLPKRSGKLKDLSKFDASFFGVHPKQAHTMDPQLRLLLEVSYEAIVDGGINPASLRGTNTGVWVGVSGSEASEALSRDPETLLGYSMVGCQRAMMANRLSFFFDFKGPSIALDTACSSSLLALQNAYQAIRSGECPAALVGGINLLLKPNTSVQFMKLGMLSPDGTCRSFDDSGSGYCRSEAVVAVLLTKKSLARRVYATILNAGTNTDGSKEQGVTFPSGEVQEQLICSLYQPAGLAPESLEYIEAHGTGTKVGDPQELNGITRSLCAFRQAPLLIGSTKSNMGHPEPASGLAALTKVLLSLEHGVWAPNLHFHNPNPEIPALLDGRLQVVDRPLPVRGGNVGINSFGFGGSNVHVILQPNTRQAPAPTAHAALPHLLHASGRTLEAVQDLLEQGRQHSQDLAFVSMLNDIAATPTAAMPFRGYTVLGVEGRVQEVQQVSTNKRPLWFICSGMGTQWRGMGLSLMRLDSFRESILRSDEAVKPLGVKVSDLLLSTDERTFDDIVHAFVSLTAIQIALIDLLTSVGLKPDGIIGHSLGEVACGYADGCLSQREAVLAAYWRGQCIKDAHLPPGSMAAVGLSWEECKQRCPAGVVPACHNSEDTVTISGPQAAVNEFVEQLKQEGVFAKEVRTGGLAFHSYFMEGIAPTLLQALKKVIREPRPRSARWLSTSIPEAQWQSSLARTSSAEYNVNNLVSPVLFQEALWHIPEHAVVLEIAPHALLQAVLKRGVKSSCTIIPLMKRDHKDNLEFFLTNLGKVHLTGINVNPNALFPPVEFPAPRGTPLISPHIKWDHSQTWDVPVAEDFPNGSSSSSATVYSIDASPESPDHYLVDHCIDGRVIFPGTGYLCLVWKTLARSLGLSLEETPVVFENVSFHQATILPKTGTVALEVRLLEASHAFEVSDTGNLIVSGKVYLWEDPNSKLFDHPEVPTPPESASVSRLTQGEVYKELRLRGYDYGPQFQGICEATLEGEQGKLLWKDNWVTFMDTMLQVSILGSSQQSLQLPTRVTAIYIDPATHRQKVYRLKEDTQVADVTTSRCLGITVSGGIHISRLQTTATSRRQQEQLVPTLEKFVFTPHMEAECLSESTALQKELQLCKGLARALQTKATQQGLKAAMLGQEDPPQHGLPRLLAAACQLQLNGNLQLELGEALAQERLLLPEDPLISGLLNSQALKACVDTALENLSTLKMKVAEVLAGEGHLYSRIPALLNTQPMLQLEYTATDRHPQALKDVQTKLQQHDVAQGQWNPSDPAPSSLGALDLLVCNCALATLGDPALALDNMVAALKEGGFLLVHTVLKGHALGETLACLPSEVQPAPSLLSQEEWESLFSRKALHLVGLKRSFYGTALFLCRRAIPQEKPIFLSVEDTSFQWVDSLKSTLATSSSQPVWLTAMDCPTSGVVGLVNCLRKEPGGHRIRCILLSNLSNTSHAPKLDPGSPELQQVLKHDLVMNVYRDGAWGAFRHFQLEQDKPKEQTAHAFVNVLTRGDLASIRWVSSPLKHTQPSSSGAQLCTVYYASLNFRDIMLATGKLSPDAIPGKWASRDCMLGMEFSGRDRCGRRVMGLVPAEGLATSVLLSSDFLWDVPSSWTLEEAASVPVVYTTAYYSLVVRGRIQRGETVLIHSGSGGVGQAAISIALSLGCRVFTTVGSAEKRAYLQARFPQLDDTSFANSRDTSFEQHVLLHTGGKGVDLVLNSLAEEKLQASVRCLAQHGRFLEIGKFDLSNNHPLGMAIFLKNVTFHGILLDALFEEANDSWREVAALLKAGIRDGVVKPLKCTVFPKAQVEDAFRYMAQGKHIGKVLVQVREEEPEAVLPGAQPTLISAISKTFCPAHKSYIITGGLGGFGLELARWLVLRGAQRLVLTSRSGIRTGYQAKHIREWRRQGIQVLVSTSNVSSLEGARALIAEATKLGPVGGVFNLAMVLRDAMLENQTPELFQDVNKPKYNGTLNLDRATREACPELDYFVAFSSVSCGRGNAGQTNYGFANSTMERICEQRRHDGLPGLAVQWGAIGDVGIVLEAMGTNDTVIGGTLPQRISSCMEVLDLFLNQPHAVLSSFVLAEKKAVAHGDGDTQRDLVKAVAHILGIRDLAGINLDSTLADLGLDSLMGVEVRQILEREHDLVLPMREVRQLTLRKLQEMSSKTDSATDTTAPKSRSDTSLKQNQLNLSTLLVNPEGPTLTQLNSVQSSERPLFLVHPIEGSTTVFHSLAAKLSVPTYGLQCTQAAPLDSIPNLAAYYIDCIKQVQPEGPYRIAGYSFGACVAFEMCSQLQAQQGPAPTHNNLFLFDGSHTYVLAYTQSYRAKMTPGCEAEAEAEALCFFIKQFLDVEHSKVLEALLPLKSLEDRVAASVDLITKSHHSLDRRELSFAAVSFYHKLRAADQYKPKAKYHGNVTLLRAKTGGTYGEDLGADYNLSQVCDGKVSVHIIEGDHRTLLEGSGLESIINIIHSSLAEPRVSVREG

No constants are given. Whether binding was seen depends on the method and setting. Binding seen in cells or lysates may run through a third protein. Some entries that bind do so weakly or less than the wild type.

In the case of “endogenous FASN (mouse embryonic fibroblasts) (from UniProt P19096 1-2504) (enzyme)”, the binding result in experiment [1] is given as “binds”; in experiment [2], “no binding”.

The values are drawn from PMC11839913.
